In the supplement of paper PMC10849652:
The list shows a part of the results.

Amino acid sequences for entries named in this document (tags omitted). A change or cut given only in a name is not applied to a line headed by its entry.
UniProt Q8TBQ9: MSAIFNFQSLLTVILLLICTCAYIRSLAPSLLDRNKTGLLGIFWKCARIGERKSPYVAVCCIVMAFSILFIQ
UniProt Q9Y490: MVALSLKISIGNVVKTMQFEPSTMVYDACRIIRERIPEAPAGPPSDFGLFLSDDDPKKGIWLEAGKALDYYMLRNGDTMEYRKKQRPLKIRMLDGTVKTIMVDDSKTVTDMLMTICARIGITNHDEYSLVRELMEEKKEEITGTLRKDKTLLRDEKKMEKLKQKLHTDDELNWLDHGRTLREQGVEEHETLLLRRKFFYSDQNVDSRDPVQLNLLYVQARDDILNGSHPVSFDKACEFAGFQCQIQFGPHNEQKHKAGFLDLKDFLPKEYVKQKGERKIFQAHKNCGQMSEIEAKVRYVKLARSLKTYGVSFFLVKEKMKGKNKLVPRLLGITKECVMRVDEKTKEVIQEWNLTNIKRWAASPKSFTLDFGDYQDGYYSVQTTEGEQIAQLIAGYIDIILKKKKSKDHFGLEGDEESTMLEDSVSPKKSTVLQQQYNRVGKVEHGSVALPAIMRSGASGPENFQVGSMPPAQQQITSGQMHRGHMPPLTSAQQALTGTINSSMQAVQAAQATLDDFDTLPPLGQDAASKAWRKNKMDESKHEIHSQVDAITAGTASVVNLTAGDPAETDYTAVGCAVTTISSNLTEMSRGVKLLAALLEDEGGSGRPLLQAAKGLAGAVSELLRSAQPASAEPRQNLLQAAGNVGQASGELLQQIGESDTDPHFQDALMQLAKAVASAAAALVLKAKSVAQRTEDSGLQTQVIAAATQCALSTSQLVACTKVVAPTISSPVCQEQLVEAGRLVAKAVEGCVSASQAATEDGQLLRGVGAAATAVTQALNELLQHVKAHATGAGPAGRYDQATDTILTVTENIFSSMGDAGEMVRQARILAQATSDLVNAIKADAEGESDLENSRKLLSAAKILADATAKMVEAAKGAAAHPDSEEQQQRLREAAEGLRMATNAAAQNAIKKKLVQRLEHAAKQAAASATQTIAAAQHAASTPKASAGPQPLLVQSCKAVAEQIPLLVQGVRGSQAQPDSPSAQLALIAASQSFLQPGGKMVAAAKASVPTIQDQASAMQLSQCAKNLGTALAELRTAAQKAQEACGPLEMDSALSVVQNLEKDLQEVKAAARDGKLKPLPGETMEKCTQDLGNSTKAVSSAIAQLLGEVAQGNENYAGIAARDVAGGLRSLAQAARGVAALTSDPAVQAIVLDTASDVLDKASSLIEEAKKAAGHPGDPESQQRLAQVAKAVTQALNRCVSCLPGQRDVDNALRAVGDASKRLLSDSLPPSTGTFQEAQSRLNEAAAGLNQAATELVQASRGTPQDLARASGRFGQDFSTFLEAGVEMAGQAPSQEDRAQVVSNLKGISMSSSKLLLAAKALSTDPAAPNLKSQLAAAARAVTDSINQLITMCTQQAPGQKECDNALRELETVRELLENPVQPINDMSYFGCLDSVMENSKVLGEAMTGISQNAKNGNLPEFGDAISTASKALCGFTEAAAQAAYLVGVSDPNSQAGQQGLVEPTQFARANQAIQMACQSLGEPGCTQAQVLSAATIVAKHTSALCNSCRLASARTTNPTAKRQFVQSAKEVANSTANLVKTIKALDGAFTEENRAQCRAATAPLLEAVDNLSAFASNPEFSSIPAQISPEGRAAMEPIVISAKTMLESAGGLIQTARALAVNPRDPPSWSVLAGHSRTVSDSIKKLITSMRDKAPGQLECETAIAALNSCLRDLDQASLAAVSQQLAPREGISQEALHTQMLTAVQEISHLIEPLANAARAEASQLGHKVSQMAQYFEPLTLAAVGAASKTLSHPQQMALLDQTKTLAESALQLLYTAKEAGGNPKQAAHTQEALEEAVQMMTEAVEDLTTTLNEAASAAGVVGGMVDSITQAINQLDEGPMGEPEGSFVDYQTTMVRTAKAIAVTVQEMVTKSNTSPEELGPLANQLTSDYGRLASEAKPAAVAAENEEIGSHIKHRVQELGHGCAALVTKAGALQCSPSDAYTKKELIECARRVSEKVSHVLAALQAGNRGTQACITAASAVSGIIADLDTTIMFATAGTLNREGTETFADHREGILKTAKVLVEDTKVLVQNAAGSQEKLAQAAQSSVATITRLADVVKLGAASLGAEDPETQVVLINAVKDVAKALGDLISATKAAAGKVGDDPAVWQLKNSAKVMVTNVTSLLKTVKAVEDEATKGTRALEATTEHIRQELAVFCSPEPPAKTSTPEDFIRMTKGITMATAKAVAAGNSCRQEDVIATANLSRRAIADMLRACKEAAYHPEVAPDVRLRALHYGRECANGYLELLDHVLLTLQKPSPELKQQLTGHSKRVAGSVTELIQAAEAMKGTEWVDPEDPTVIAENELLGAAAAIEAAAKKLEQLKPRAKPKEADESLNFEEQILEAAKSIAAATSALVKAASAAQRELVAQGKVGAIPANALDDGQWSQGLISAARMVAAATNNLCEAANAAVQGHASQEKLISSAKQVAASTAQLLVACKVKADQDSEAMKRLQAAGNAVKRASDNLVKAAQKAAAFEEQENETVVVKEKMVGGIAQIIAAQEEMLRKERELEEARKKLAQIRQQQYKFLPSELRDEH
UniProt Q9Y2S6, whole entry, looked up: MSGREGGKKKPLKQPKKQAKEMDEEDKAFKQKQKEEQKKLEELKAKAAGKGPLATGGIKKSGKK
UniProt Q13445: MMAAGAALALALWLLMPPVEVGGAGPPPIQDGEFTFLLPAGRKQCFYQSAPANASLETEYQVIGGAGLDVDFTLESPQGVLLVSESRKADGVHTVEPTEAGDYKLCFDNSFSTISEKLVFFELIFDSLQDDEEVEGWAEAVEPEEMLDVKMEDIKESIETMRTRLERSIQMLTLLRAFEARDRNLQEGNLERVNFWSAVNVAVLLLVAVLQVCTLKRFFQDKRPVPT
UniProt Q0P6H9: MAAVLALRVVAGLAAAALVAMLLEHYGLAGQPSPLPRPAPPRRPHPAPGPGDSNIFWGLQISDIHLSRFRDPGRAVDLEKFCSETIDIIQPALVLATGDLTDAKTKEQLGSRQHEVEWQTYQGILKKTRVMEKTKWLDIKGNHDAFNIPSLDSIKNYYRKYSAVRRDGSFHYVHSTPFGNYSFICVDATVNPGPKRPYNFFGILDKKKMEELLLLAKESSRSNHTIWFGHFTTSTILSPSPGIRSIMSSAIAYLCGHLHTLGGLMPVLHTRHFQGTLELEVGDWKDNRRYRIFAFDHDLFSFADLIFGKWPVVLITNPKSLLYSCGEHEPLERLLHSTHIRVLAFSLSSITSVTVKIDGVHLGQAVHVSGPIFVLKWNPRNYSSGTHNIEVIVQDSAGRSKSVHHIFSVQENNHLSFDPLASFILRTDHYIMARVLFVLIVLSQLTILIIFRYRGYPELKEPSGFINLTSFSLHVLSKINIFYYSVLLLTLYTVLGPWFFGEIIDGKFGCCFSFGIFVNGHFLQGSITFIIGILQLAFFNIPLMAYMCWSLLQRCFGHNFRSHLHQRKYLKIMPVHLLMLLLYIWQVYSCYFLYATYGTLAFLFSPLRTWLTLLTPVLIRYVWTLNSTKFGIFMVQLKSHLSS
UniProt Q9H7F4: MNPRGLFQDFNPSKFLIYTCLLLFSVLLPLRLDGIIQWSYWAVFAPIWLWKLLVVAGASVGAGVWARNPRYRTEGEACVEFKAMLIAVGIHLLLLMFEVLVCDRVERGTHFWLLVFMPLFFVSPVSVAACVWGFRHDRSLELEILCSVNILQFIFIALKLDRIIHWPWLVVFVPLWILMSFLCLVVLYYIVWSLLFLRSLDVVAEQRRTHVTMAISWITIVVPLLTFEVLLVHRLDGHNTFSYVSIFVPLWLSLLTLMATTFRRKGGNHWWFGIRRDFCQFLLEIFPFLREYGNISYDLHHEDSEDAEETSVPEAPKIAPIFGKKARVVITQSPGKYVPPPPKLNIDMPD
UniProt O94886: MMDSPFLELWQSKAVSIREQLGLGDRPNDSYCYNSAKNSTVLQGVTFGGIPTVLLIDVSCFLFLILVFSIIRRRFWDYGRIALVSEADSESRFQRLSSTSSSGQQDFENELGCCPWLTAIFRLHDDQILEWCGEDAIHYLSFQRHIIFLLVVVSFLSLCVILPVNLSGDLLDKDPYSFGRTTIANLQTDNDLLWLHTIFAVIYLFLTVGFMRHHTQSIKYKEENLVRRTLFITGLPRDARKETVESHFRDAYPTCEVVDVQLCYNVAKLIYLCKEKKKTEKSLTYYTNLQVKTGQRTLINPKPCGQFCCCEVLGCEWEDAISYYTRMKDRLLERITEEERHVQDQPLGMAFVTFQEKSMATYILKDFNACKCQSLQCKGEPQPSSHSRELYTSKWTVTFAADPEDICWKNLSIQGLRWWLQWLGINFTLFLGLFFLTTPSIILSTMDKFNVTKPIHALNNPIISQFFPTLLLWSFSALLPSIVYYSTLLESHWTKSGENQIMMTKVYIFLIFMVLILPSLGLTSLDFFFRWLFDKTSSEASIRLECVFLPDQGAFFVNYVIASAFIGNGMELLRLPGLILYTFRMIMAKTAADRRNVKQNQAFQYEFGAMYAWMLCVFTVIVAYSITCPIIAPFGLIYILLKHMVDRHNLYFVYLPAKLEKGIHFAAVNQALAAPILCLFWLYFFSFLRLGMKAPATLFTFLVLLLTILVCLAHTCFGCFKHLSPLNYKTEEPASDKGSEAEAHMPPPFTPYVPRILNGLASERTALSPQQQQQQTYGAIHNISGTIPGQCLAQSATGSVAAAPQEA
UniProt Q5BJD5: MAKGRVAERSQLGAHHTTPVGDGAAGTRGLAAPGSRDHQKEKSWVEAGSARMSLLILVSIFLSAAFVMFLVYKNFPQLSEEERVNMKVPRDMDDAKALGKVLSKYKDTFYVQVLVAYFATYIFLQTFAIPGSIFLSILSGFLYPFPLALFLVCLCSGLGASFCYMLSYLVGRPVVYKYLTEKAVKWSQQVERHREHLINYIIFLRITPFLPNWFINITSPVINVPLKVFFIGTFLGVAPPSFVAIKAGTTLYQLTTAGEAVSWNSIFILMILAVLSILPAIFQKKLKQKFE
UniProt Q9BRN9: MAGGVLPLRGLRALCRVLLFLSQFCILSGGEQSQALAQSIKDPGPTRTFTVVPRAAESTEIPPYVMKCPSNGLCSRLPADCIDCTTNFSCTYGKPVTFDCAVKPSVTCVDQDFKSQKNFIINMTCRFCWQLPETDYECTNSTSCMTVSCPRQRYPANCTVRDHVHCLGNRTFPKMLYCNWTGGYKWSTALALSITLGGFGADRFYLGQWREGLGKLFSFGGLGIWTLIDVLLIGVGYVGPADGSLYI
UniProt Q8NBN3: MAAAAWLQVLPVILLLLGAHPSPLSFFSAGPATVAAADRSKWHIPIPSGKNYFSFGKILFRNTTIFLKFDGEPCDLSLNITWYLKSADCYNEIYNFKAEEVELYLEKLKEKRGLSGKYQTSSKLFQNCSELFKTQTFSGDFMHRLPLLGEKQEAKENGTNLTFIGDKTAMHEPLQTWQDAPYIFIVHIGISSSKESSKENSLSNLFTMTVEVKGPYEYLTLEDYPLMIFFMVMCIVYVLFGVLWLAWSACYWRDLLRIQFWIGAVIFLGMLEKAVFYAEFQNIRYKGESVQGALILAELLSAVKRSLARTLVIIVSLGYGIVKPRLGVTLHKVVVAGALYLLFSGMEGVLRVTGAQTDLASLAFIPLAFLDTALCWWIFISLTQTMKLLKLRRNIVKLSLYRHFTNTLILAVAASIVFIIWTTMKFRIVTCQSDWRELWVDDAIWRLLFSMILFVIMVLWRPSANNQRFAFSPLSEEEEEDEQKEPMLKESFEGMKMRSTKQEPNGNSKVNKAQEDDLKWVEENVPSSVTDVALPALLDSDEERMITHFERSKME
UniProt P63313: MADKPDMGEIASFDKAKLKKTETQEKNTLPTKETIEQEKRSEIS
UniProt Q6PI78: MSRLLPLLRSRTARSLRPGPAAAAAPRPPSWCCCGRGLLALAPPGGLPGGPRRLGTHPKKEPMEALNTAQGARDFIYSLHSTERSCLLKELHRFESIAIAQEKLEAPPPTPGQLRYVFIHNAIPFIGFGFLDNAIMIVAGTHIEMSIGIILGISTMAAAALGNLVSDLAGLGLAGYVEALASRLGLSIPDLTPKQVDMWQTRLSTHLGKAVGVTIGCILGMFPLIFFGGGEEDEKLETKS
UniProt A5PLL7: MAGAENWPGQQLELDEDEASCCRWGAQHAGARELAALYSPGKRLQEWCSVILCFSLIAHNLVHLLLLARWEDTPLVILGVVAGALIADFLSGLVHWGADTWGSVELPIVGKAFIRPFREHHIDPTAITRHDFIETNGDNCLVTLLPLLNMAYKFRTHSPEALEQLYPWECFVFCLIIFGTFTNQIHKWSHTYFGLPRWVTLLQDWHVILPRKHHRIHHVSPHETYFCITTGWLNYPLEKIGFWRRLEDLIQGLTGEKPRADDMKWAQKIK
UniProt Q9BVT8: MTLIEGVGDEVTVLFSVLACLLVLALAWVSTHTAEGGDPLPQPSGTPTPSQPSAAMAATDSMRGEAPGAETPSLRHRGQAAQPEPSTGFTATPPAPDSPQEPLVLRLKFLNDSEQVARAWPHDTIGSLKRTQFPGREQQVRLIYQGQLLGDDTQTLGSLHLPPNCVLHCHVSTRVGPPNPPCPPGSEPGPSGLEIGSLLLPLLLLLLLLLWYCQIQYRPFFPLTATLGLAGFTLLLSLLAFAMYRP

The targets below were run with CC[C@@H]1C(=O)N(C)c2cnc(Nc3ccc(C(=O)NC4CCN(C)CC4)cc3OC)nc2N1C1CCCC1 (assay: log2 fold change, soluble protein after heating vs DMSO (PISA); higher = thermal stabilisation; K562 cells, 10 uM, 30 min; active = over 0.2 and 3.5 SD of the protein, either way, in both replicates (recomputed)).
Outline: (§1)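 Soluble protein was quantified by TMTpro 16plex LC-MS/MS after channel sums were equalised. It was obtained as the supernatant after 21,000xg for 90 min from pooled aliquots of K562 cells (2×10^6 cells/mL, 10 μM compound, 30 min) heated for 3 min across 48°C-58°C and extracted in PBS with 0.5% NP-40 at 4°C. Thermal stability values are relative to control samples and come from duplicates. They are given as log2 fold changes.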
TM9SF3 (UniProt Q9HD45) was tested, and the log2 fold change was inactive: 0.026.
For TMA16 (UniProt Q96EY4), the log2 fold change was inactive: 0.159.
For TMEM167A (UniProt Q8TBQ9), the log2 fold change was inactive: 0.033.
In the case of TMED2 (UniProt Q15363), the log2 fold change is reported as inactive: 0.019.
In the case of TMC1 (UniProt Q8TDI8), the log2 fold change is reported as inactive: 0.345.
TMEM115 (UniProt Q12893) was tested, and the log2 fold change was inactive: -0.021.
TMEM160 (UniProt Q9NX00) was tested, and the log2 fold change was inactive: 0.079.
For TMCO1 (UniProt Q9UM00), the log2 fold change was inactive: -0.168.
With TLN1 (UniProt Q9Y490) the log2 fold change was inactive: -0.058.
For TMA7 (UniProt Q9Y2S6), the log2 fold change was inactive: -0.024.
In the case of TMX4 (UniProt Q9H1E5), the log2 fold change is reported as inactive: 0.006.
In the case of TMED1 (UniProt Q13445), the log2 fold change is reported as inactive: 0.064.
TMEM245 (UniProt Q9H330) was tested, and the log2 fold change was inactive: 0.065.
With TMEM68 (UniProt Q96MH6) the log2 fold change was inactive: -0.005.
In the case of TMEM199 (UniProt Q8N511), the log2 fold change is reported as inactive: -0.094.
With TMEM62 (UniProt Q0P6H9) the log2 fold change was inactive: 0.047.
With TMEM97 (UniProt Q5BJF2) the log2 fold change was inactive: 0.007.
For TMEM185B (UniProt Q9H7F4), the log2 fold change was inactive: -0.094.
With TMEM209 (UniProt Q96SK2) the log2 fold change was inactive: -0.114.
In the case of TMEM63A (UniProt O94886), the log2 fold change is reported as inactive: -0.041.
In the case of TMEM41B (UniProt Q5BJD5), the log2 fold change is reported as inactive: -0.039.
In the case of TMX1 (UniProt Q9H3N1), the log2 fold change is reported as inactive: -0.02.
TMED3 (UniProt Q9Y3Q3) was tested, and the log2 fold change was inactive: 0.031.
In the case of TM2D3 (UniProt Q9BRN9), the log2 fold change is reported as inactive: -0.012.
TMEM87A (UniProt Q8NBN3) was tested, and the log2 fold change was inactive: -0.093.
TMPO (UniProt P42167) was tested, and the log2 fold change was inactive: -0.03.
For TMSB10 (UniProt P63313), the log2 fold change was inactive: -0.046.
For TMEM33 (UniProt P57088), the log2 fold change was inactive: 0.036.
With TMEM65 (UniProt Q6PI78) the log2 fold change was inactive: 0.16.
For TMED4 (UniProt Q7Z7H5), the log2 fold change was inactive: -0.094.
In the case of TMLHE isoform 8 (UniProt Q9NVH6), the log2 fold change is reported as inactive: -0.036.
With TMEM11 (UniProt P17152) the log2 fold change was inactive: -0.055.
TMOD1 (UniProt P28289) was tested, and the log2 fold change was inactive: -0.026.
In the case of TMOD2 (UniProt Q9NZR1), the log2 fold change is reported as inactive: 0.007.
TMEM189 (UniProt A5PLL7) was tested, and the log2 fold change was inactive: -0.01.
With TMED10 (UniProt P49755) the log2 fold change was inactive: -0.059.
In the case of TMUB1 (UniProt Q9BVT8), the log2 fold change is reported as inactive: 0.003.
With TMOD3 (UniProt Q9NYL9) the log2 fold change was inactive: -0.016.

What follows are targets tested with CC[C@@H]1C(=O)N(C)c2cnc(Nc3ccc(C(=O)N[C@H]4CC[C@H](N5CCN(CC6CC6)CC5)CC4)cc3OC)nc2N1C(C)C [volasertib] in the same assay as above.
Outline: as §1
TM9SF3 (UniProt Q9HD45) was tested, and the log2 fold change was inactive: -0.052.
With TMA16 (UniProt Q96EY4) the log2 fold change was inactive: 0.271.
TMEM167A (UniProt Q8TBQ9) was tested, and the log2 fold change was inactive: 0.084.
In the case of TMED2 (UniProt Q15363), the log2 fold change is reported as inactive: -0.005.
With TMC1 (UniProt Q8TDI8) the log2 fold change was inactive: 0.046.
TMEM115 (UniProt Q12893) was tested, and the log2 fold change was inactive: -0.009.
In the case of TMEM160 (UniProt Q9NX00), the log2 fold change is reported as inactive: -0.02.
In the case of TMCO1 (UniProt Q9UM00), the log2 fold change is reported as inactive: -0.118.
In the case of TLN1 (UniProt Q9Y490), the log2 fold change is reported as inactive: -0.187.
TMA7 (UniProt Q9Y2S6) was tested, and the log2 fold change was inactive: 0.067.
For TMX4 (UniProt Q9H1E5), the log2 fold change was inactive: 0.008.
With TMED1 (UniProt Q13445) the log2 fold change was inactive: 0.033.
In the case of TMEM245 (UniProt Q9H330), the log2 fold change is reported as inactive: -0.045.
For TMEM68 (UniProt Q96MH6), the log2 fold change was inactive: -0.09.
For TMEM199 (UniProt Q8N511), the log2 fold change was inactive: 0.014.
For TMEM62 (UniProt Q0P6H9), the log2 fold change was inactive: 0.031.
TMEM97 (UniProt Q5BJF2) was tested, and the log2 fold change was inactive: 0.147.
With TMEM185B (UniProt Q9H7F4) the log2 fold change was inactive: -0.027.
With TMEM209 (UniProt Q96SK2) the log2 fold change was inactive: -0.138.
TMEM63A (UniProt O94886) was tested, and the log2 fold change was inactive: 0.115.
With TMEM41B (UniProt Q5BJD5) the log2 fold change was inactive: -0.12.
In the case of TMX1 (UniProt Q9H3N1), the log2 fold change is reported as inactive: -0.02.
With TMED3 (UniProt Q9Y3Q3) the log2 fold change was inactive: -0.13.
With TM2D3 (UniProt Q9BRN9) the log2 fold change was inactive: 0.
In the case of TMEM87A (UniProt Q8NBN3), the log2 fold change is reported as inactive: -0.161.
In the case of TMPO (UniProt P42167), the log2 fold change is reported as inactive: 0.002.
With TMSB10 (UniProt P63313) the log2 fold change was inactive: -0.017.
In the case of TMEM33 (UniProt P57088), the log2 fold change is reported as inactive: -0.008.
TMEM65 (UniProt Q6PI78) was tested, and the log2 fold change was inactive: -0.03.
For TMED4 (UniProt Q7Z7H5), the log2 fold change was inactive: -0.025.
For TMLHE isoform 8 (UniProt Q9NVH6), the log2 fold change was inactive: 0.133.
In the case of TMEM11 (UniProt P17152), the log2 fold change is reported as inactive: -0.003.
In the case of TMOD1 (UniProt P28289), the log2 fold change is reported as inactive: -0.118.
TMOD2 (UniProt Q9NZR1) was tested, and the log2 fold change was inactive: 0.06.
For TMEM189 (UniProt A5PLL7), the log2 fold change was inactive: -0.177.
With TMED10 (UniProt P49755) the log2 fold change was inactive: 0.046.
For TMUB1 (UniProt Q9BVT8), the log2 fold change was inactive: -0.151.
With TMOD3 (UniProt Q9NYL9) the log2 fold change was inactive: -0.175.
